# Measured values from PubChem BioAssay AID504635 (The Scripps Research Institute Molecular Screening Center, 2011).
# Shown are results outside the selection of hits, which stands elsewhere. The source made the active and inactive calls. Cut-off read from the data, not from the text of the source: active = inhibition above about 18%; inactive = the rest.
# Target: Troponin I, cardiac muscle (Homo sapiens) + Troponin T, cardiac muscle (Homo sapiens) + Troponin C, slow skeletal and cardiac muscles (Homo sapiens) (UniProt P19429+P45379+P63316)
# Assay: cardiac RTF calcium sensitivity inhibitors, confirmation, biochemical, fluorescence readout (AID 504635)
# Settings: reconstituted cardiac thin filaments, at 7.15 µM, stronger effect = higher value
compound,measurement,value
CN1[C@@H]2CC[C@H]1CC(OC(=O)C(O)c1ccccc1)C2 (stereo partly specified),inhibition,inactive: -2.73%
